Results from US20110045489A1, “Polymerases for Incorporating Modified Nucleotides” (NEW ENGLAND BIOLABS, INC., priority 2008, published 2011).
Some entries share one result that the patent states for a list of compounds.

Test system: 3′-azido-ddCTP
Assay: Titration assay for chain terminator incorporation efficiency (3′-azido-ddCTP)
Format: biochemical
Conditions: 3′-azido-ddCTP:dNTP 10:1, 2.5:1, 1:2.5; FIG. 1
Experimental: FIG. 1A-1D show titration assays for chain terminator incorporation efficiency. The relative efficiency of incorporation of modified nucleotide terminators was assessed using the titration assay described in Gardner and Jack Nucleic Acids Research 30: 605-613 (2002). A dye-labeled oligonucleotide primer 5′-AGTGAATTCGAGCTCGGTACCCGGGGATCCTCTAGAGTCGACCTGCAGGC-3′ was annealed to a single-stranded M13mp18 DNA template (Accession No. X02513) and extended by a DNA polymerase in the presence of various ratios of 3′-azido-ddCTP:dNTP (10:1, 2.5:1, 1:2.5) or dNTP (“dN” in the figure) alone in 1×ThermoPol buffer (20 mM Tris-HCl, 10 mM (NH4)2SO4,10 mM KCl, 2 mM MgSO4, 0.1% Triton X-100, pH 8.8 @ 25° C.). […]
In order to determine the extent of 3′-modified nucleotide incorporation by archaeon DNA polymerases, the titration assay described by Gardner and Jack (2002) was used. […] By comparing the amount of terminator required to give the same spectrum of reaction products, the relative efficiency of incorporation of the test compounds with the different polymerases was determined. […]
Once the spectrum of termination products was determined, a comparison of the length, uniformity and clarity of these patterns was used to evaluate incorporation of the terminator. […]
The size distribution of termination products was determined by the relative rates of dNTP and terminator incorporation. […]

Molecule | 3′-azido-ddCTP incorporation efficiency relative to 9° N exo-P410V DNA polymerase | 3′-azido-ddCTP incorporation efficiency relative to 9° N exo-L408S/P410V DNA polymerase
9° N exo-L408S/P410V: 9° N DNA polymerase mutant (protein, UniProt Q56366 1-775, looked up, variant D141A E143A L408S P410V) DNA polymerase: MILDTDYITENGKPVIRVFKKENGEFKIEYDRTFEPYFYALLKDDSAIEDVKKVTAKRHGTVVKVKRAEKVQKKFLGRPIEVWKLYFNHPQDVPAIRDRIRAHPAVVDIYEYDIPFAKRYLIDKGLIPMEGDEELTMLAFAIATLYHEGEEFGTGPILMISYADGSEARVITWKKIDLPYVDVVSTEKEMIKRFLRVVREKDPDVLITYNGDNFDFAYLKKRCEELGIKFTLGRDGSEPKIQRMGDRFAVEVKGRIHFDLYPVIRRTINLPTYTLEAVYEAVFGKPKEKVYAEEIAQAWESGEGLERVARYSMEDAKVTYELGREFFPMEAQLSRLIGQSLWDVSRSSTGNLVEWFLLRKAYKRNELAPNKPDERELARRRGGYAGGYVKEPERGLWDNIVYLDFRSSYVSIIITHNVSPDTLNREGCKEYDVAPEVGHKFCKDFPGFIPSLLGDLLEERQKIKRKMKATVDPLEKKLLDYRQRAIKILANSFYGYYGYAKARWYCKECAESVTAWGREYIEMVIRELEEKFGFKVLYADTDGLHATIPGADAETVKKKAKEFLKYINPKLPGLLELEYEGFYVRGFFVTKKKYAVIDEEGKITTRGLEIVRRDWSEIAKETQARVLEAILKHGDVEEAVRIVKEVTEKLSKYEVPPEKLVIHEQITRDLRDYKATGPHVAVAKRLAARGVKIRPGTVISYIVLKGSGRIGDRAIPADEFDPTKHRYDAEYYIENQVLPAVERILKAFGYRKEDLRYQKTKQVGLGAWLKVKGKK | at least 4 fold | –
9° N exo-L408S/Y409A/P410V: 9° N DNA polymerase mutant (Therminator III™, NEB) (protein, UniProt Q56366 1-775, looked up, variant D141A E143A L408S Y409A P410V) DNA polymerase: MILDTDYITENGKPVIRVFKKENGEFKIEYDRTFEPYFYALLKDDSAIEDVKKVTAKRHGTVVKVKRAEKVQKKFLGRPIEVWKLYFNHPQDVPAIRDRIRAHPAVVDIYEYDIPFAKRYLIDKGLIPMEGDEELTMLAFAIATLYHEGEEFGTGPILMISYADGSEARVITWKKIDLPYVDVVSTEKEMIKRFLRVVREKDPDVLITYNGDNFDFAYLKKRCEELGIKFTLGRDGSEPKIQRMGDRFAVEVKGRIHFDLYPVIRRTINLPTYTLEAVYEAVFGKPKEKVYAEEIAQAWESGEGLERVARYSMEDAKVTYELGREFFPMEAQLSRLIGQSLWDVSRSSTGNLVEWFLLRKAYKRNELAPNKPDERELARRRGGYAGGYVKEPERGLWDNIVYLDFRSSAVSIIITHNVSPDTLNREGCKEYDVAPEVGHKFCKDFPGFIPSLLGDLLEERQKIKRKMKATVDPLEKKLLDYRQRAIKILANSFYGYYGYAKARWYCKECAESVTAWGREYIEMVIRELEEKFGFKVLYADTDGLHATIPGADAETVKKKAKEFLKYINPKLPGLLELEYEGFYVRGFFVTKKKYAVIDEEGKITTRGLEIVRRDWSEIAKETQARVLEAILKHGDVEEAVRIVKEVTEKLSKYEVPPEKLVIHEQITRDLRDYKATGPHVAVAKRLAARGVKIRPGTVISYIVLKGSGRIGDRAIPADEFDPTKHRYDAEYYIENQVLPAVERILKAFGYRKEDLRYQKTKQVGLGAWLKVKGKK | – | at least 4 fold
